Values from PubChem BioAssay AID652272 (Drosophila RNAi Screening Center, 2013)

- Screen: 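Finding fly genes that regulate Hedgehog signal transduction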 (primary screen)
- Cell system: Drosophila clone 8 (Cl8) cells
- Reagents: long dsRNA against Drosophila genes
- Measured: 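Firefly light from a Hedgehog-responsive ptc promoter reporter and Renilla reference light, both read on a plate reader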
- Scale: firefly Hh reporter signal: higher = more ptc reporter light; Renilla reference signal: higher = more Renilla control light
- Hit rule: 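Hit when the z-score averaged over two replicates is under -2 or over +3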
- Meaning of the calls: active = hit: reporter lowered or raised; inactive = not a hit
The deposit covers about 21,000 reagents; shown is an unselected part of those with a known target gene and a result. Of all reagents, 503 (2.4%) were called active. 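Raw plate light values, not normalised; calls rest on replicate z-scores that were not deposited; hits include reporter decreases as well as increases.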 Unmarked entries are inactive. The numbers tell different reagents against one gene apart. Not given: the amount of reagent, the time to read-out.

gene knocked down | dsRNA no. | firefly Hh reporter signal, replicate 1 | firefly Hh reporter signal, replicate 2 | firefly Hh reporter signal, replicate 3 | Renilla reference signal, replicate 1 | Renilla reference signal, replicate 2
TkR86C | 1 | 87930 | 1.10e5 | – | 1960 | 3184
CG7579 | 1 | 82534 | – | – | 2826 | 2050
Mtl | 1 | 1.06e5 | 1.09e5 | – | 3394 | 3708
Alg7 | 1 | 1.06e5 | 69386 | – | 3356 | 2726
Alg7 | 2 | 1.04e5 | 47963 | – | 2848 | 4184
IleRS | 1 | 1.36e5 | 1.13e5 | – | 6022 | 4887
CG5021 | 1 | 42631 | 60448 | – | 5697 | 5196
CG32428 | 1 | 68624 | 47553 | – | 2307 | 1490
CG32428 | 2 | 1.18e5 | 1.04e5 | – | 4740 | 3065
CG14770 | 1 | 71016 | 2.27e5 | – | 1115 | 8906
CG5391 | 1 | 9.10e5 | 2.65e5 | – | 47186 | 5846
CG17760 | 1 | 1.20e5 | 68316 | – | 2980 | 5081
osy | 1 | 3.97e5 | 81604 | – | 24613 | 2864
osy | 2 | 5.95e5 | 1.07e5 | – | 43301 | 2481
osy | 3 | 63488 | 79213 | – | 1461 | 1896
CG30383 | 1 | 95527 | 1.77e5 | – | 2512 | 7400
Cubn | 1 | 73948 | 78781 | – | 2375 | 1540
ssx | 1 | 83669 | 1.01e5 | – | 904 | 2823
CG30195 | 1 | 1.07e5 | 63753 | – | 2736 | 6508
CG1801 | 1 | 91996 | 2.14e5 | – | 2605 | 9104
L | 1 | 62440 | 37232 | – | 1930 | 3158
L | 2 | 76352 | 34643 | – | 1891 | 2928
CG17271 | 1 | 5.35e5 | 89345 | – | 30976 | 6864
CG4022 | 1 | 29440 | 39227 | 72794 | 3728 | 4648
CG43736 | 1 | 1.11e5 | 3.24e5 | – | 2755 | 7434
CG43736 | 2 | 1.37e5 | 3.66e5 | – | 4360 | 12826
CG10953 | 1 | 1.05e5 | 56355 | – | 1339 | 4800
Rab1 | 1 | 3.74e5 | 1.82e5 | – | 21019 | 3861
Ntmt | 1 | 1.30e5 | 65900 | – | 3332 | 486
CG30378 | 1 | 86000 | 1.87e5 | – | 7664 | 8442
Cyp6u1 | 1 | 99508 | 73357 | – | 3864 | 3138
CG6602 | 1 | 47609 | 49060 | – | 4441 | 4416
Cyp4e1 | 1 | 64981 | 48633 | – | 1563 | 3467
CG9801 | 1 | 85160 | 55253 | – | 3520 | 2348
CG3368 | 1 | 97813 | 73676 | – | 2468 | 2011
eIF4E5 | 1 | 62336 (active) | 56245 | – | 3020 | 3616
CG5056 | 1 | 1.10e5 | 65351 | – | 3626 | 5974
CG7377 | 1 | 82722 | 41456 | 31009 | 5528 | 2629
CG33340 | 1 | 4.66e5 | 94352 | – | 21920 | 3157

4 of these entries, set out differently:
gene knocked down,dsRNA no.,"firefly Hh reporter signal, replicate 1","firefly Hh reporter signal, replicate 2","firefly Hh reporter signal, replicate 3","Renilla reference signal, replicate 1","Renilla reference signal, replicate 2"
CG17760,1,1.20e5,68316,,2980,5081
osy,1,3.97e5,81604,,24613,2864
osy,2,5.95e5,1.07e5,,43301,2481
osy,3,63488,79213,,1461,1896
